Results: PMC10128019
Results are given in words; binding and its absence hold for the method and conditions named. Some entries that bind do so weakly or less than the wild type.

Chains of the proteins cited; added tags and fusions are not shown. Residues count along the entry.
UniProt A0A0D1DWQ2, residues 22-290: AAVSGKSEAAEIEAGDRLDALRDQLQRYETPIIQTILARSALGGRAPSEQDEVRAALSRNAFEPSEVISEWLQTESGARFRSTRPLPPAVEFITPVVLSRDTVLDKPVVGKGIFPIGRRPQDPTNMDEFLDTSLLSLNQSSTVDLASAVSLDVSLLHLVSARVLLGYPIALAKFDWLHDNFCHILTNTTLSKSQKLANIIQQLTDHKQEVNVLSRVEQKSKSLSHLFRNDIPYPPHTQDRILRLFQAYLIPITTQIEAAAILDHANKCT

Biological target: chorismate mutase (Cmu1), GAL4 fusions
Test: two-hybrid

For “chorismate mutase (Cmu1), GAL4 fusions (from UniProt A0A0D1DWQ2 22-290) (enzyme)”, the binding was “binds”.
